Reference: PubChem BioAssay AID1259415 (National Center for Advancing Translational Sciences (NCATS), 2018)
“And” between values parts separate entries of the source, which are not always exact repeats. Equal values may be shown once. The campaign covered roughly 410,000 compounds. About 18,000 (4.4%) were called active. Inconclusive means that the source gave no clear call. Such entries were picked first, then a sample of the others. Cut-off read from the data, not from the text of the source: active = activity change below about -60%; inconclusive = no clear call, values can overlap the other calls; inactive = above about -39%. Some structures have more than one record in an assay (separate samples or runs), and their calls can disagree.

Assay: qHTS Assay for inhibitors of the human cytomegalovirus (HCMV)
Conditions: HFF cells, HCMV-luciferase reporter, 72 h; at 57.5 µM; stronger effect = lower value
Summary of the method: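 Two-dose cell screen: HFF monolayers treated with compounds and infected with luciferase-expressing HCMV at 1 PFU/cell, 72 h at 37C, then lysed for luciferase measurement.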
% is set by controls: 0 for no effect and ±100 for the full control effect.

SMILES | activity change, negative = inhibition
COC(=O)c1ccc(NC(=O)c2ccc3c(c2)C(=O)N(Cc2cccnc2)C3=O)cc1 | inconclusive: -52.8%
O=[N+]([O-])c1ccc2c([N+](=O)[O-])ccc3c2c1CC3 | inconclusive: -44.2%
COCCNC(=O)c1ccc(NC(=O)C2(c3ccccc3)CCCC2)cc1 | inconclusive: -42.9%
COc1ccc(C(=O)Nc2cnn(Cc3ccc(Cl)cc3)c2)cc1OC | inconclusive: -43.4%
Cc1nc2ccc(C(=O)Nc3ccc4nc[nH]c4c3)cc2[nH]1 | inactive: -5.08%
CCCSc1nnc2c(n1)OC(c1sccc1C)Nc1ccccc1-2 (stereo unspecified) | inactive: 43.2%
Cc1cc2c(NC3CCCCC3)ncnc2s1 | inconclusive: -43.8%
CCOC(=O)N1CCN(C(=O)c2ccc(S(=O)(=O)Nc3ccccc3)cc2)CC1 | inconclusive: -44.7%
CCOc1ccc(-c2cc(C(=O)N3CCN(S(=O)(=O)c4cc(Cl)ccc4OC)CC3)[nH]n2)cc1 | inconclusive: 0%
Cc1ccc(C)c(OCCC(=O)OCc2csc(CC(=O)Nc3ccccc3C)n2)c1 | inconclusive: -43%
COc1ccccc1-c1nc2c(c(SCC(=O)Nc3c(C)cc(C)cc3C)n1)Cc1c(CO)cnc(C)c1O2 | inactive: -19.3%
COC(=O)[C@@]1(Cc2ccc(F)cc2)[C@H]2c3cc(C(=O)N(C)C)n(Cc4ccccc4)c3C[C@H]2CN1C(=O)c1ccccc1 | inconclusive: -40.1%
Cc1csc(NC(=O)CSc2ncnc3ccccc23)n1 | inconclusive: -49%
O=C(NCc1cccs1)c1ccc(Cn2c(SCc3cccc(F)c3)nc3cccnc32)cc1 | active: -70%
COc1ccc(S(=O)(=O)N2CCOc3ccccc32)cc1 | inconclusive: -43.3%
OC[C@@H]1CN(Cc2ccc3c(c2)OCO3)C[C@H](n2cnc3c(NC4CCCC4)ncnc32)O1 | inactive: 9.39%
O=C(OCCOc1cccc(Cl)c1)c1cc(S(=O)(=O)N2CCCCC2)ccc1N1CCOCC1 | active: -88.2%
O=C(Cc1cc(=O)[nH][nH]1)N/N=C/c1cccc(Cl)c1Cl | active: -102%
COCCNC(=S)NCc1ccc2[nH]c3c(c2c1)CCCC3 | active: -72.6%
CCOc1ccc(/C=N/NC(=O)c2nnn(-c3nonc3N)c2CN(C)C2CCCCC2)cc1 | inconclusive: -40.2%
CCN(CC)c1ccc([C@H]2[C@@H]3CCCC[C@]3(O)CCN2CC(=O)NCc2ccco2)cc1 | inconclusive: -40.2%

SMILES | activity change, negative = inhibition
COc1ccccc1N1CCN(C(CNC(=O)C(=O)NCc2ccc(C)cc2)c2cccnc2)CC1 (stereo unspecified) | inconclusive: -56.9%
Cc1cc(-c2ccc(S(=O)(=O)N3CCN(c4cccc(C)c4C)CC3)s2)on1 | inconclusive: -49.7%
CCOC(=O)CN(C)S(=O)(=O)c1ccc(-c2cc(C(=O)OC)sc2C(F)(F)F)cc1 | inconclusive: -41.7%
COc1ccc(C2=NC(c3ccncc3)=Nc3ccc(Br)cc3N2)cc1 | inconclusive: -43.6%
CC[C@]12c3[nH]c4ccc(Cl)cc4c3CCN1C(=O)[C@@H](CC(=O)NCCC1=CCCCC1)C[C@@H]2C(=O)N1CCN(C(=O)C2CC2)CC1 | inconclusive: -45.6%
COc1ccc(-c2cc(C(=O)NCc3ccc(F)cc3)[nH]n2)c(C)c1 | inactive: 0.617%
CCCOc1ccc(CSCCNC(=S)Nc2ccccc2)cc1 | inactive: -37.3%
O=C(NC1(C(F)(F)F)Oc2ccc(Cl)cc2O1)N1CCC2(CC1)OCCO2 (stereo unspecified) | inactive: -6.28%
Cn1c(=O)c2c(nc(CN3CCN(Cc4ccccc4)CC3)n2Cc2ccc(Cl)cc2)n(C)c1=O | active: -103%
COc1ccc(S(=O)(=O)c2c(C)c(NS(=O)(=O)c3ccccc3)cc(C)c2O)cc1 | inconclusive: -55% and active: -62.5%
CCn1c(SCC(=O)NCc2ccc3c(c2)OCO3)nc2c(c1=O)SCC2 | inconclusive: -42%
COCCCNCCOCCOc1ccc(Cl)cc1C(C)(C)C | inconclusive: -49.5%
Brc1ccc(CN2CCN(Cc3c[nH]c4ccccc34)CC2)cc1 | inconclusive: -44.3%
O=C(O)c1cn(Cc2ccccn2)c(=O)c2ccccc12 | inconclusive: -46%
COc1ccc(C(=O)Nc2ccc(-c3nnn(CC(=O)NCc4ccco4)n3)cc2)cc1 | inconclusive: -55.1%
CC(=O)Nc1sc(C)c(C)c1C(=O)OCC(=O)Nc1ccccc1C(F)(F)F | inactive: -6.14%
CC(C)C(=O)Nc1ccc(S(=O)(=O)Nc2nccc(/C=C/c3ccccc3)n2)cc1 | inconclusive: -40.3%
COc1ccc2cc3cc(C(=O)NCCCN4CCc5ccccc5C4)sc3nc2c1 | inactive: 80.4%
O=C1NC2(CCCCCCC2)C(=O)N1Cc1ccc(F)cc1 | inconclusive: -48.7%
COc1ccccc1NC(=O)c1ccc(-n2ccnc2)c([N+](=O)[O-])c1 | inactive: 14.8%
Cc1nc2c(C(=O)NCCc3ccc(Cl)cc3)c[nH]n2c(=O)c1Cc1ccc(Cl)cc1 | inactive: 39.8%

SMILES | activity change, negative = inhibition
COCCSc1ccccc1C(=O)Nc1cc(C)ccn1 | inconclusive: -42.9%
CCN(CC)CCNC(=O)c1cc(-c2cccnc2)nc2ccc(S(=O)(=O)N3CCC(C)CC3)cc12 | inconclusive: -50.2%
Cc1ccc(OP(N)(=O)Oc2ccc(C)cc2)cc1 | inactive: 0%
CN1CCN(C2Cc3cc(Cl)ccc3Sc3cc(F)ccc32)CC1 (stereo unspecified) | active: -77.5%
CC1Cc2ccccc2N1c1ncnc2c1nnn2Cc1ccccc1 (stereo unspecified) | inconclusive: -49.7%
Cc1ccc(C)c(CNc2ccc(S(=O)(=O)N3CCCCC3)cc2)c1 | inconclusive: -46.5%
CN(CCCNC(=O)CSc1cc(=O)n(C)c2cc(Cl)ccc12)Cc1ccccc1 | inactive: 56.4%
CN(C(=O)C1Cc2c(-c3ccc(Cl)cc3)ccnc2O1)c1ccccc1 (stereo unspecified) | inconclusive: -42.4%
Cc1ccc(/C=C/C(=O)OCC(=O)NC(=O)NCc2ccco2)cc1 | inconclusive: -41.6%
Cc1nn(-c2ccc(F)cc2)c2sc(C(=O)N3CCCCCC3)cc12 | inactive: -8.09%
Cc1ccc(CCNC(=O)c2cccc(NC3=NC4CS(=O)(=O)CC4S3)c2)cc1 (stereo unspecified) | inconclusive: -43.7%
CC1CN(Cc2csc(-c3ccc(Cl)cc3)n2)CC(C)O1 (stereo unspecified) | inconclusive: -48.1%
Cc1cc(-c2ccccc2)nc2cc(C(=O)NCc3ccco3)nn12 | inactive: 19.5%
CCCCOc1ccc(CN2C(=O)C(=O)c3cc(Br)cc(C)c32)cc1OC | active: -102%
CCCN(CCC)c1nc(C#N)nc(N(CCC)CCC)n1 | inconclusive: -41.9%
Clc1ccc(CNc2ncccn2)cc1 | inconclusive: -59.7%
Cc1cccc(C)c1-n1ncc(C(=O)Nc2ccc3c(c2)OCO3)c1C1CCN(C(=O)OC(C)(C)C)CC1 | inactive: 7.19%
Cc1cccc(N2CC(C(=O)OCC(=O)c3ccc(OC(=O)c4cccs4)cc3)CC2=O)c1C (stereo unspecified) | inconclusive: -41.9%
CN(C(=O)c1sc2nc(N3CCOCC3)c3c(c2c1N)CCCC3)c1ccccc1 | inconclusive: -49.5%
Cc1c(C)c2ccc(OCC(=O)Nc3ccc(S(N)(=O)=O)cc3)c(C)c2oc1=O | inconclusive: -47.9%
Cc1cccc(-n2c(-c3csc(C)c3C)n[nH]c2=S)c1 | inconclusive: -48.4%

SMILES | activity change, negative = inhibition
C[C@@H]1CN([C@@H](C)CO)S(=O)(=O)c2ccc(/C=C/c3ccccc3)cc2O[C@@H]1CN(C)Cc1ccc(C(=O)O)cc1 | inactive: 0.44%
CC(=O)c1ccc(Nc2cc(C)nc3c(C)cc(C)cc23)cc1 | inconclusive: -40.6%
CC(C)NC(=O)Nc1cccc2c1O[C@H](CN(C)C(=O)NC1CCCCC1)[C@@H](C)CN([C@H](C)CO)C2=O | inconclusive: -47.1%
COc1cc(S(=O)(=O)N2CCOCC2)ccc1NC(=O)COC(=O)CC12CC3CC(CC(C3)C1)C2 | inconclusive: -45.9%
CCOc1cc(/C=C2/N=C(c3ccc(C(C)(C)C)cc3)OC2=O)cc(Cl)c1OS(C)(=O)=O | inconclusive: -40.5%
Cc1noc(C)c1C(=O)N1CCCC(C(=O)c2cccc(OC(C)C)c2)C1 (stereo unspecified) | inconclusive: -41.4%
CC(C)CCn1c(=O)c2sccc2n2c(CCCC(=O)NC(C)C)nnc12 | inconclusive: -49.7%
COc1ccc(O)c(/C=N/NC(=O)c2ccc(CSc3nc(C)cc(C)n3)cc2)c1 | active: -89.6%
Cc1[nH]nc2c1C(C(C)c1ccccc1)C(C#N)=C(N)O2 (stereo unspecified) | inconclusive: -48%
COC(=O)c1ccc(NC(=O)c2snnc2-c2ccccc2)cc1 | inconclusive: -49.2%
COC(=O)C1=C(c2ccc(Cl)c(C(F)(F)F)c2)C[C@@H]2CC[C@H]1N2C(=O)NCC1CC1 | inactive: -23.2%
CC(=O)N1CCN(c2ccccc2NC(=O)COc2ccc(Br)cc2)CC1 | inactive: -31.4%
CCOCCCNC(=O)c1c[nH]c2cc(OC)ccc2c1=O | inconclusive: -40.4%
COc1cc2c(cc1OC)C(=O)N1[C@H]3c4cc(Cl)ccc4OC[C@@H]3[C@H](c3ccccc3)[C@]1(C)C(=O)N2 | inconclusive: -54.7%
COc1ccc(C2/C=C\CN(S(=O)(=O)c3ccc(C)cc3)CC(=O)N2Cc2cccc(F)c2)cc1 (stereo unspecified) | inactive: -5.54%
COc1cc2c(cc1OC)CN(C(=O)Nc1ccccc1Cl)CC2 | inconclusive: -46.4%
CCOc1ccc(-c2c(C(=O)N/N=C/c3ccsc3)nnn2-c2nonc2N)cc1 | inconclusive: -59.7%
O=C(NC1CCCC1)C(NS(=O)(=O)c1cccc2nsnc12)c1ccccc1 (stereo unspecified) | inactive: 27.1%

Random excerpt: six compounds from above.
SMILES | activity change, negative = inhibition
CCOC(=O)N1CCN(C(=O)c2ccc(S(=O)(=O)Nc3ccccc3)cc2)CC1 | inconclusive: -44.7%
COCCSc1ccccc1C(=O)Nc1cc(C)ccn1 | inconclusive: -42.9%
CCN(CC)c1ccc([C@H]2[C@@H]3CCCC[C@]3(O)CCN2CC(=O)NCc2ccco2)cc1 | inconclusive: -40.2%
Cc1cccc(-n2c(-c3csc(C)c3C)n[nH]c2=S)c1 | inconclusive: -48.4%
Cc1ccc(/C=C/C(=O)OCC(=O)NC(=O)NCc2ccco2)cc1 | inconclusive: -41.6%
CN(C(=O)c1sc2nc(N3CCOCC3)c3c(c2c1N)CCCC3)c1ccccc1 | inconclusive: -49.5%
